Test results reported in the supplement of paper PMC7666118.
This is one part of the list.

Protein sequences, listed by entry. Tags and fused reporters are not part of them. Lines headed by an entry give the natural chain unless they say otherwise; changes in a name come on top.
UniProt Q8NEC7: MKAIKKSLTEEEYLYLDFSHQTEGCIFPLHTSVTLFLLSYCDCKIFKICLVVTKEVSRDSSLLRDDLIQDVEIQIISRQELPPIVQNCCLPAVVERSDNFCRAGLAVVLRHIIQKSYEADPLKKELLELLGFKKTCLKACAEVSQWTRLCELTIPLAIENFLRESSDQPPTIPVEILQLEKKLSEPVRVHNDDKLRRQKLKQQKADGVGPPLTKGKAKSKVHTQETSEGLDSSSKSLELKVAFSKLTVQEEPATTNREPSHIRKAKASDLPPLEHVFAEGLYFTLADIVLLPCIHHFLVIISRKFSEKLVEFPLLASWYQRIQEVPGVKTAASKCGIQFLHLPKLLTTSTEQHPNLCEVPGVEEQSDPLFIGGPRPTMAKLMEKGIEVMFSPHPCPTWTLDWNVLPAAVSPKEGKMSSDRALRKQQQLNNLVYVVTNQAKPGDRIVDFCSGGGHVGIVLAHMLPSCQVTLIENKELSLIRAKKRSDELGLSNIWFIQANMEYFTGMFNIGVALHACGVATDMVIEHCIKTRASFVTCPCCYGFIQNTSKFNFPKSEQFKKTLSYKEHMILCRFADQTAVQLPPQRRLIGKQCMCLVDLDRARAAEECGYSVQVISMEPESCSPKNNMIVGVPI
UniProt Q96MH2: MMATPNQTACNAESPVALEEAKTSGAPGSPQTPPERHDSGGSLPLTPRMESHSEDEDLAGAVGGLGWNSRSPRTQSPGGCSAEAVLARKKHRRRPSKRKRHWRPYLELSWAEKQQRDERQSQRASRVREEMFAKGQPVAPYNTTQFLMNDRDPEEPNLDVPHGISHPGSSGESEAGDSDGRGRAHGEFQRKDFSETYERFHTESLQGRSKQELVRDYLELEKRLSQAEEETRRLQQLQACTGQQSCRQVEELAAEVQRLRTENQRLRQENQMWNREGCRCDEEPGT
UniProt Q8TD30: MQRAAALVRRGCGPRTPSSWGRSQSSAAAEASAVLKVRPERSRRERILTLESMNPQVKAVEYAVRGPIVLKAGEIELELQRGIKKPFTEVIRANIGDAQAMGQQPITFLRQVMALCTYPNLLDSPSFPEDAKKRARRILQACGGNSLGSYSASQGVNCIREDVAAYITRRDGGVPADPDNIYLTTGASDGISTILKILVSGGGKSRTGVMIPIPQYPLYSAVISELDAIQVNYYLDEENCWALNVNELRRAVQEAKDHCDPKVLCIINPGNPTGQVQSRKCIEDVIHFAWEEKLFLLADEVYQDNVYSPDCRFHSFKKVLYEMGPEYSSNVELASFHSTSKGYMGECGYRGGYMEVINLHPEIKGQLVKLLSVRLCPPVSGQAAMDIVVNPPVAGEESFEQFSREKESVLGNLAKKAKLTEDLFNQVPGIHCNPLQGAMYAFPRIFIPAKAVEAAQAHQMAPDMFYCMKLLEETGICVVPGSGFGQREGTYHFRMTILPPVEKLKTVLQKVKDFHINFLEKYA
UniProt Q03014: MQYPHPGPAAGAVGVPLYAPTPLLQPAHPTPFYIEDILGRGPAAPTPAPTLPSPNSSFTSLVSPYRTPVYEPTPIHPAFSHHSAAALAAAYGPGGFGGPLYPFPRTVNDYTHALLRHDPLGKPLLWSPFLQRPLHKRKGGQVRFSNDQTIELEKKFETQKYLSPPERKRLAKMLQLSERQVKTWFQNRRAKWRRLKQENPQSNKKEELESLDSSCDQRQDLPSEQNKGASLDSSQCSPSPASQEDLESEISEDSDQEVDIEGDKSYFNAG
UniProt O95249: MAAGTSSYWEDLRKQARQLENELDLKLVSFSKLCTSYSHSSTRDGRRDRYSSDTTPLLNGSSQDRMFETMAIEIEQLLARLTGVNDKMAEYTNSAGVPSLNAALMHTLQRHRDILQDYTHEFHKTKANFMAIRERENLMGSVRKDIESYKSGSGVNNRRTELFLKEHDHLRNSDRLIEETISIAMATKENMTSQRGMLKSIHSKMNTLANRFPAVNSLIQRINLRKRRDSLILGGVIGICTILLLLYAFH
UniProt Q16836: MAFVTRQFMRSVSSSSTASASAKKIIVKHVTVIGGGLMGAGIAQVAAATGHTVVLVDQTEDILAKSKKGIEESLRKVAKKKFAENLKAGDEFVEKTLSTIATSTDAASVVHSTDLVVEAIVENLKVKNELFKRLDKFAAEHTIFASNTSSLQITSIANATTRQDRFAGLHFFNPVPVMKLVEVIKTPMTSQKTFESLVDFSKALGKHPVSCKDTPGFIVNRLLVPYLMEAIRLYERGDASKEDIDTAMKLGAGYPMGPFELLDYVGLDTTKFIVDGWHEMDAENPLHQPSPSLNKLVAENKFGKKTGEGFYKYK
UniProt Q9HCN4, whole entry: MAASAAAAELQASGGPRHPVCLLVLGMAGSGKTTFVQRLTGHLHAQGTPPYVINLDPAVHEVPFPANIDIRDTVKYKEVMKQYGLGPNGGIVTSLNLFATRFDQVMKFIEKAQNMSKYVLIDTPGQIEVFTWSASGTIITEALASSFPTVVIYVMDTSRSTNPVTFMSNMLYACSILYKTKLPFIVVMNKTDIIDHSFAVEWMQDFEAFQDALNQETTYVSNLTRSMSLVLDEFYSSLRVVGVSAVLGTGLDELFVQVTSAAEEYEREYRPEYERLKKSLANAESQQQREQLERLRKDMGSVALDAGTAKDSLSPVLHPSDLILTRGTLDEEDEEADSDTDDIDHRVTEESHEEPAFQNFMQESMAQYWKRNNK
UniProt P29084: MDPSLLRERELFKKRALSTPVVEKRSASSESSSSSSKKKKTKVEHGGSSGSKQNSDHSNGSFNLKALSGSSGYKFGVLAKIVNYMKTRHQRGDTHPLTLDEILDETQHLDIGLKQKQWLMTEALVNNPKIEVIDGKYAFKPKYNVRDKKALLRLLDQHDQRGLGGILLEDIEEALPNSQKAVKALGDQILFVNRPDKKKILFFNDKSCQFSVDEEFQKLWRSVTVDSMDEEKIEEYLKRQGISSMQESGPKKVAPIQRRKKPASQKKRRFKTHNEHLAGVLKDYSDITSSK
UniProt Q9UGU5: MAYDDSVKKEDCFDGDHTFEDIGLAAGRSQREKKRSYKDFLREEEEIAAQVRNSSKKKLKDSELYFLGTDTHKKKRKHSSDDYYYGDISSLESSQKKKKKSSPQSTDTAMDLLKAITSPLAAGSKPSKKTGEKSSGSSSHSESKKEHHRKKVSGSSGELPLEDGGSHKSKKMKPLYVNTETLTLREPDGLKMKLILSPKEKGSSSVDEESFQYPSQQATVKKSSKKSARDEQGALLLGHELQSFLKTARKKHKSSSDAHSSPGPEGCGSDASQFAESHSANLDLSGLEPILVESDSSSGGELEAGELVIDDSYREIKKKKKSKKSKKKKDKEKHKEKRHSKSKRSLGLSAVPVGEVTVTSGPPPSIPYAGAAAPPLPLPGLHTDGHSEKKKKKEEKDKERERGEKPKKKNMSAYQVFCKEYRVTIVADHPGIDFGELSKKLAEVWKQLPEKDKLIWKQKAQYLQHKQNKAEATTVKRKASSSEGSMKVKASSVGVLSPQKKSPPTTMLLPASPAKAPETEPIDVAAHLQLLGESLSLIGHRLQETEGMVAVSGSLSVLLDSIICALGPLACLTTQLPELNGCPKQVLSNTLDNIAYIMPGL
UniProt Q9NQS5: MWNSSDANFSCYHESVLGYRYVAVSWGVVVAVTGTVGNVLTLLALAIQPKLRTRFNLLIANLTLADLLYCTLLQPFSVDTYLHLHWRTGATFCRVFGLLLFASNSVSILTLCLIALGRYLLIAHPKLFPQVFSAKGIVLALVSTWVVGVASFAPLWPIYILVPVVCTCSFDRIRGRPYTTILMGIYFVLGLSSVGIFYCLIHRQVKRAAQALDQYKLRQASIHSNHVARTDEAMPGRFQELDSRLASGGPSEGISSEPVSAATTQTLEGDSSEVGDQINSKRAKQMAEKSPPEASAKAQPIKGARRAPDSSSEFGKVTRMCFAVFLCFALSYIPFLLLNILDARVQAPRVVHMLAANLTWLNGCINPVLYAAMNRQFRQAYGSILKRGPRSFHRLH
UniProt P49840: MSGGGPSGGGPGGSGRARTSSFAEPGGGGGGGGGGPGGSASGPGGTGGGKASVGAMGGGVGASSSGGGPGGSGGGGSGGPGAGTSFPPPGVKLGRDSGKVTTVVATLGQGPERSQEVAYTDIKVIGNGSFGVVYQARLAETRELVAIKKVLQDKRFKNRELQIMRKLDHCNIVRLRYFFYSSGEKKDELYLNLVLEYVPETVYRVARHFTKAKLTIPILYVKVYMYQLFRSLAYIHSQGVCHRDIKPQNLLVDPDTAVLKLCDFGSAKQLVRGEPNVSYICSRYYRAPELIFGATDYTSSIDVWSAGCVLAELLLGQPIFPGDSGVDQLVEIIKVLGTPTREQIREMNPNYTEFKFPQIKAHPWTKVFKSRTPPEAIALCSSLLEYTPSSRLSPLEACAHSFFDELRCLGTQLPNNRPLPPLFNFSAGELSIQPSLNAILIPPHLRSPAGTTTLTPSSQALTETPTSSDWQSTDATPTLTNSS
UniProt O14964, whole entry: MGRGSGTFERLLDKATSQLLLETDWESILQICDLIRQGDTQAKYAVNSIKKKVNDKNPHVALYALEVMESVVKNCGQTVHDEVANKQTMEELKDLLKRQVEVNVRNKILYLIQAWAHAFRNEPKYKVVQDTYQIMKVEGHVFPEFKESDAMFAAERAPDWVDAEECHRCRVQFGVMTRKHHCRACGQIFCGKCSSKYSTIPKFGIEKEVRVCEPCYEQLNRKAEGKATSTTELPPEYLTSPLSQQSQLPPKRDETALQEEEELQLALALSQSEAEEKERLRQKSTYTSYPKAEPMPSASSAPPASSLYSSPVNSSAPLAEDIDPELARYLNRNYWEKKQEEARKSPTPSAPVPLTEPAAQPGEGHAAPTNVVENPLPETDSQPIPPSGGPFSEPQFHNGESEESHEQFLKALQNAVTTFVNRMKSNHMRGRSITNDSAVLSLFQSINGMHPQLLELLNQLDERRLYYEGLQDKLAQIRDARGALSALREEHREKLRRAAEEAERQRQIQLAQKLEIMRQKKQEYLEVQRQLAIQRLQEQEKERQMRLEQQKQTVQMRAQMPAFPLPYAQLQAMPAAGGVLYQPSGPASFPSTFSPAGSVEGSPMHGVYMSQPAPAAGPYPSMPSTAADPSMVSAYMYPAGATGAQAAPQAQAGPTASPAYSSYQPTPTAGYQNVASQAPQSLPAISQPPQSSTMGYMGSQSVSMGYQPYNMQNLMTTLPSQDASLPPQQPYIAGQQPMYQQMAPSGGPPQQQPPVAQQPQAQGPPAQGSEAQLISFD
UniProt Q8WVV9: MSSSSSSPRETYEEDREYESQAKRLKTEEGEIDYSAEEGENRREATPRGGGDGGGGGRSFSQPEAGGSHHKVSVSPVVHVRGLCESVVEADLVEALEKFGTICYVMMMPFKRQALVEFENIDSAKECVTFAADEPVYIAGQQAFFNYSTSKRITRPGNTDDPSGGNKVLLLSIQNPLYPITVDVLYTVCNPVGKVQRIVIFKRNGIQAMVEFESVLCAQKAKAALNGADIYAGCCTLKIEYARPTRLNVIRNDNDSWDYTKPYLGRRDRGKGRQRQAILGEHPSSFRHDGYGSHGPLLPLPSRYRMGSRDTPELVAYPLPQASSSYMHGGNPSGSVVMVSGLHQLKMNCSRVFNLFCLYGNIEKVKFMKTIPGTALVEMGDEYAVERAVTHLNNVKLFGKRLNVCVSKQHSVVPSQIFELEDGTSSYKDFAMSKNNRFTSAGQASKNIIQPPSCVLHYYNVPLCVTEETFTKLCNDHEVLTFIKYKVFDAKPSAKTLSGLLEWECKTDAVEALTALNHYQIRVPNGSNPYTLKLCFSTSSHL
UniProt P29083: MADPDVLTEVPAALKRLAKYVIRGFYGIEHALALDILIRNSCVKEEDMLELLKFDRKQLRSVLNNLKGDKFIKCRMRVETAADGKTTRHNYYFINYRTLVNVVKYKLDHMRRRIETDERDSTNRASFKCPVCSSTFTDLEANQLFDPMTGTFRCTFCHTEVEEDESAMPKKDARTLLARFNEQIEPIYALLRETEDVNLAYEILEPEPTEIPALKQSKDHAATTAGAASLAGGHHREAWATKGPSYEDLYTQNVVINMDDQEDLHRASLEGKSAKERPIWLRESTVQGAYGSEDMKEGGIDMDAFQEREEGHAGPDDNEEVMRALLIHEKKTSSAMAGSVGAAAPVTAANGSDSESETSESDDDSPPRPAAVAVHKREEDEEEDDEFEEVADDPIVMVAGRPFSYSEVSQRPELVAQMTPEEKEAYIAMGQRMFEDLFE
UniProt Q86YM7: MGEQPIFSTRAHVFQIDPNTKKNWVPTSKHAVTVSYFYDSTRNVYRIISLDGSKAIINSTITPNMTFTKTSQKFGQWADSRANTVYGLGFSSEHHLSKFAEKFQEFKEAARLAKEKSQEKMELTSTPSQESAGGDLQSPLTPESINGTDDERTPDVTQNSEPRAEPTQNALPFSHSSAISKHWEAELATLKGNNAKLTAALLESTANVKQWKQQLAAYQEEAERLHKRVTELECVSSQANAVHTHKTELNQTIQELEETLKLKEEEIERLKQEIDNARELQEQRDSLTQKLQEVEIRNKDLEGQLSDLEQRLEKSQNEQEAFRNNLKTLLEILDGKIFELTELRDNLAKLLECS

These targets were tested with COc1ccc(Cn2ccc3cc(C)c(C(=O)NO)cc32)cc1 (assay: dose-dependent thermal stabilisation call (2D-TPP, DLPTP, 10% FDR) (binary (1 = stabilised)); higher = stabilised by the compound). Details: system: HL-60 intact cells; concentration range 0.04-10 µM.
Experimental: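 2D thermal proteome profiling in intact HL-60 cells treated with BRD-3811 (0, 0.04, 0.29, 2, 10 uM) for 90 min at 37 C, then heated 3 min at one of 12 temperatures (42-63.9 C). Soluble protein was quantified by TMT10 MS. The value is the DLPTP call of the paper: dose-dependent thermal stabilisation over all temperatures at 10% FDR (F-test of a dose-response against a flat model); one experiment, one call per tested protein.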

Target | dose-dependent thermal stabilisation call
GSTCD (UniProt Q8NEC7) | inactive: 0
H3F3A (UniProt P84243) | inactive: 0
HCCS (UniProt P53701) | inactive: 0
GUK1 (UniProt Q16774) | inactive: 0
GTF2I (UniProt P78347) | inactive: 0
GOLGA4 (UniProt Q13439) | inactive: 0
GPX4 (UniProt P36969) | inactive: 0
HINT2 (UniProt Q9BX68) | inactive: 0
HEATR2 (UniProt Q86Y56) | inactive: 0
HIST1H1D (UniProt P16402) | inactive: 0
HEXIM2 (UniProt Q96MH2) | inactive: 0
HDHD2 (UniProt Q9H0R4) | inactive: 0
GPT2 (UniProt Q8TD30) | inactive: 0
HHEX (UniProt Q03014) | inactive: 0
GRAMD4 (UniProt Q6IC98) | inactive: 0
GOSR1 (UniProt O95249) | inactive: 0
HADH (UniProt Q16836) | inactive: 0
GPN1 (UniProt Q9HCN4) | inactive: 0

Reformatted: entries from further up
Target	dose-dependent thermal stabilisation call
HHEX (UniProt Q03014)	inactive: 0
GRAMD4 (UniProt Q6IC98)	inactive: 0

The results go on:

Target | dose-dependent thermal stabilisation call
GTF2E2 (UniProt P29084) | inactive: 0
HMGXB4 (UniProt Q9UGU5) | inactive: 0
HEBP1 (UniProt Q9NRV9) | inactive: 0
GPR84 (UniProt Q9NQS5) | inactive: 0
GZF1 (UniProt Q9H116) | inactive: 0
HDDC3 (UniProt Q8N4P3) | inactive: 0
GSK3A (UniProt P49840) | inactive: 0
GNPAT (UniProt O15228) | inactive: 0
HN1L | inactive: 0
GTF2H2 (UniProt Q13888) | inactive: 0
HGS (UniProt O14964) | inactive: 0
HERC2 (UniProt O95714) | inactive: 0
HMGCR (UniProt P04035) | inactive: 0
GPR183 (UniProt P32249) | inactive: 0
HNRPLL (UniProt Q8WVV9) | inactive: 0
GTF2E1 (UniProt P29083) | inactive: 0
HOMER1 (UniProt Q86YM7) | inactive: 0
HISPPD1 (UniProt O43314) | inactive: 0
